Experimental findings from US20090281166A1, “Treatment of Cancer by Inhibition of HSP27” (THE UNIVERSITY OF BRITISH COLUMBIA, priority 2008, published 2009) are described below.

Sequences of proteins named here, by UniProt entry; tags and fusion partners are left off.
UniProt P31749: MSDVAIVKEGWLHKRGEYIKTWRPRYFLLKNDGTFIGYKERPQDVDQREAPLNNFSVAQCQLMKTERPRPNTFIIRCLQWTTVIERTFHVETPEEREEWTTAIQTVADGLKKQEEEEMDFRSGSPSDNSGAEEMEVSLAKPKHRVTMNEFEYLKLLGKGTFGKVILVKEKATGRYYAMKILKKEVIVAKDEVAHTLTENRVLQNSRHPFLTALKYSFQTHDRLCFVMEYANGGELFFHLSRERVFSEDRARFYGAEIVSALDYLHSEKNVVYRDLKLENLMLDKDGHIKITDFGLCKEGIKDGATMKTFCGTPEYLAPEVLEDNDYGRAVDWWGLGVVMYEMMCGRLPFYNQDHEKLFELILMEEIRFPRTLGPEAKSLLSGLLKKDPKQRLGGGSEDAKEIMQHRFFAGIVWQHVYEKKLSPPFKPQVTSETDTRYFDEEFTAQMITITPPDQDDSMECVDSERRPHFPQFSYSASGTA
UniProt P04792: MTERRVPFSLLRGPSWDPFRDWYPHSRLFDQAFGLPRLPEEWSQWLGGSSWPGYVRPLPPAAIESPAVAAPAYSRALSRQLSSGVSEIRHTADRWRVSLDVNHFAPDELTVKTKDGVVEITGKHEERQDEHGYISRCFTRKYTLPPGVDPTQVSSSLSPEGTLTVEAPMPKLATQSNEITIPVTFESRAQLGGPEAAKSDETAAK

Results are given in words; binding and its absence hold for the method and conditions named. In cells and extracts the contact can be indirect. Some entries that bind do so weakly or less than the wild type.

The experiment addresses Akt (UniProt P31749). The experiment in a line: co-immunoprecipitation from LNCaP cell lysates with Akt antibody, Western blot with Hsp27 antibody. Background: In western blotting, separated proteins are transferred to a membrane and probed.

Regarding “heat shock protein 27 (Hsp27) (from UniProt P04792 1-205)”, the binding entry is recorded as “binds”.
